Results are given in words; binding and its absence hold for the method and conditions named. Some results given as binding are weak or reduced against the parent protein; the word gives no strength. For some assays here: Where a sequence is shown, tags or fusion partners need not be part of it.

The chains behind the UniProt entries cited, without tags or fusion partners. Where a name states a change or a piece, a line headed by the entry shows the natural chain unless it says otherwise.
UniProt O00571: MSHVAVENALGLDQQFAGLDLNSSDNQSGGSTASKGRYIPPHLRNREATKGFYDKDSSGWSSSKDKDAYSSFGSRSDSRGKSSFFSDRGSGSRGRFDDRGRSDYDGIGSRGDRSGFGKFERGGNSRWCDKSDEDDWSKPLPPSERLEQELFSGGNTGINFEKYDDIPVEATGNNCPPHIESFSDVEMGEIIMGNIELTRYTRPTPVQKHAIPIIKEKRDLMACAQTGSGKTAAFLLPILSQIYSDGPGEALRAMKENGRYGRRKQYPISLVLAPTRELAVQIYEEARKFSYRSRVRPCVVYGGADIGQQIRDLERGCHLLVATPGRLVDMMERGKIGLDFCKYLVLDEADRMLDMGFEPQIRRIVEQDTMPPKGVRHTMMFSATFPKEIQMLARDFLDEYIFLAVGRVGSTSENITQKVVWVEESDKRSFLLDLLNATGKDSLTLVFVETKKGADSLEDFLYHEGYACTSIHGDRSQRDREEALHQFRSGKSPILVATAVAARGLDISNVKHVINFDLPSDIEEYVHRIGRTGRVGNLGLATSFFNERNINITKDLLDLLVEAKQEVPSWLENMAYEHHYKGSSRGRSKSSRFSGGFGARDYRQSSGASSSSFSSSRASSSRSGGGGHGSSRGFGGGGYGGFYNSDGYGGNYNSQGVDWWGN

For test [1], the target named is human topoisomerase IIIα fused with the DNA-binding domain of GAL4 (plasmid pGBT-TopoIIIα) (human) (UniProt P04386+Q13472). Put plainly: yeast two-hybrid, GAL4 DB-topoisomerase IIIα bait, strain yCM17, β-Gal activity test.
Test [2] deals with T1, human topoisomerase IIIα fused with the LexA protein (plasmid pLex-TopoIIIα) (human) (UniProt Q13472).
T1 sequence (looked up): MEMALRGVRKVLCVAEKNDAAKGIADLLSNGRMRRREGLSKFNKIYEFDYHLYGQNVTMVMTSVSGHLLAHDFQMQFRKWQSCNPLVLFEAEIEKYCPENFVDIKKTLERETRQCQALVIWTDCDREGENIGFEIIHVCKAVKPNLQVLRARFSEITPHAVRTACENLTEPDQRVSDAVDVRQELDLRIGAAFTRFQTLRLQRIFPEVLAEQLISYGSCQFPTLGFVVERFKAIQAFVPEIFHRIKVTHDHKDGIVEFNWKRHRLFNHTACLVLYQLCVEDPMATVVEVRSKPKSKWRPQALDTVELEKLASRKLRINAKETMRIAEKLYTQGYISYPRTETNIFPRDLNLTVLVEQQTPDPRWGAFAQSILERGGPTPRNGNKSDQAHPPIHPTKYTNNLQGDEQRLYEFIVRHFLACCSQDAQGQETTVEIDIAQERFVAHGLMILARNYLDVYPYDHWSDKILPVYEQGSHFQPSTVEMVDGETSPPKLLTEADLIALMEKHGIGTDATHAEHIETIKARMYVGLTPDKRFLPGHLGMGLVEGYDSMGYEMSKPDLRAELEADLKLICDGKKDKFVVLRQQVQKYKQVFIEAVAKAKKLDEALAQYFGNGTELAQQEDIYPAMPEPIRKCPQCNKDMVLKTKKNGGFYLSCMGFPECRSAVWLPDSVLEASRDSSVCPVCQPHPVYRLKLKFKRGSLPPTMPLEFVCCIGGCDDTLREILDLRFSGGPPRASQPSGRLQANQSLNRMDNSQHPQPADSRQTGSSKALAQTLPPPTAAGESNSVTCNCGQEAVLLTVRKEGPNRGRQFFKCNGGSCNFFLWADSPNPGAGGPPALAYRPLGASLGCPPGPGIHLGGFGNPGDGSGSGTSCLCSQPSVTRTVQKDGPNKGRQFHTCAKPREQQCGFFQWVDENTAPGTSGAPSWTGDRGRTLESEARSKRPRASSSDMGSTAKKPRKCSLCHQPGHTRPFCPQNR
Put plainly: yeast two-hybrid screen of a HeLa cDNA library, LexA-topoisomerase IIIα bait, strain L40, His3 and LacZ reporters.

With “polypeptide encoded by the plasmid isolated during the screening of the Hela cell two-hybrid cDNA library (cloned fragment SEQ ID No. 3 encoding SEQ ID No. 4), fused with the transactivating domain of GAL4 (vector pGAD GH) (from UniProt O00571 318-662)”, the binding entry in test [1] and in test [2] was “binds” throughout.
